Test results: doi:10.1101/869289 (bioRxiv, 2019)
These are yes or no findings as the source states them, for the method shown. Some results given as binding are weak or reduced against the parent protein; the word gives no strength.

T1: Tim9/10a/10b hexamer chaperone (human) (UniProt Q9Y5J7+P62072+Q9Y5J6)
T1 sequence 1: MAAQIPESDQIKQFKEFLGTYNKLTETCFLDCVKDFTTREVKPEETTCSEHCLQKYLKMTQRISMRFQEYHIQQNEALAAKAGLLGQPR
T1 sequence 2: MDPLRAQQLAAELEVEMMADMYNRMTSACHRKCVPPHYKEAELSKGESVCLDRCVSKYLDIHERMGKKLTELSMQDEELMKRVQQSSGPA
T1 sequence 3: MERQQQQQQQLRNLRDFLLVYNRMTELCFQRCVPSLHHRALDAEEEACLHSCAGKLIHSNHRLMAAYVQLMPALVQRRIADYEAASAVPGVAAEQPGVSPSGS

T2: Tim9/10a hexamer chaperone (human) (UniProt Q9Y5J7+P62072)
T2 sequence 1: T1 sequence 1
T2 sequence 2: T1 sequence 2

B1: Tim22 (natural protein, human, UniProt Q9Y584 1-194, looked up)
chain: MAAAAPNAGGSAPETAGSAEAPLQYSLLLQYLVGDKRQPRLLEPGSLGGIPSPAKSEEQKMIEKAMESCAFKAALACVGGFVLGGAFGVFTAGIDTNVGFDPKDPYRTPTAKEVLKDMGQRGMSYAKNFAIVGAMFSCTECLIESYRGTSDWKNSVISGCITGGAIGFRAGLKAGAIGCGGFAAFSAAIDYYLR
B2: acylglycerol kinase (AGK) (enzyme, UniProt Q53H12 1-422)
chain: MTVFFKTLRNHWKKTTAGLCLLTWGGHWLYGKHCDNLLRRAACQEAQVFGNQLIPPNAQVKKATVFLNPAACKGKARTLFEKNAAPILHLSGMDVTIVKTDYEGQAKKLLELMENTDVIIVAGGDGTLQEVVTGVLRRTDEATFSKIPIGFIPLGETSSLSHTLFAESGNKVQHITDATLAIVKGETVPLDVLQIKGEKEQPVFAMTGLRWGSFRDAGVKVSKYWYLGPLKIKAAHFFSTLKEWPQTHQASISYTGPTERPPNEPEETPVQRPSLYRRILRRLASYWAQPQDALSQEVSPEVWKDVQLSTIELSITTRNNQLDPTSKEDFLNICIEPDTISKGDFITIGSRKVRNPKLHVEGTECLQASQCTLLIPEGAGGSFSIDSEEYEAMPVEVKLLPRKLQFFCDPRKREQMLTSPTQ
B3: Tim29 (natural protein, human, UniProt Q9BSF4 32-260, looked up)
chain: GSWARALLRDYAEACRDASAEARARPGRAAVYVGLLGGAAACFTLAPSEGAFEEALLEASGTLLLLAPATRNRESEAFVQRLLWLRGRGRLRYVNLGLCSLVYEAPFDAQASLYQARCRYLQPRWTDFPGRVLDVGFVGRWWVLGAWMRDCDINDDEFLHLPAHLRVVGPQQLHSETNERLFDEKYKPVVLTDDQVDQALWEEQVLQKEKKDRLALSQAHSLVQAEAPR

Key:
[1] = target: T1, Tim9/10a/10b hexamer chaperone (human); assay: cryo-EM structure
[2] = target: T2, Tim9/10a hexamer chaperone (human); assay: cryo-EM structure

Binder | binding [1] | binding [2]
B1 | binds | 
B2 | binds | 
B3 | binds | binds
